In experiment [1] the test system is MIWI (PIWIL1) piRISC loaded with L1MC piRNA (30 nt). The experiment in a line: pre-steady-state target cleavage rate (min^-1); higher = faster piRNA-guided slicing of the target. Conditions: guide: L1MC piRNA 5'p-UAACUAAAUACUAUGCAAGCUGUAGGUCCU;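 note: 1 nM active piRISC with 0.1 nM target library at 33 °C single turnover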
Summed up: (§1)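 Active affinity-purified piRISC carrying one synthetic guide (1 nM) was mixed with a transcribed, DNA-blocked target RNA library […] in HEPES–potassium acetate buffer at 33 °C for 0–8 or 0–960 min, with or without 500 nM GTSF1 partner protein. Uncleaved targets were then sequenced and normalised to depth and to weakly complementary targets. Three trials were pooled, and k3 was capped at 0.0001 min^-1. A burst-and-steady-state fit was applied to obtain the pre-steady-state cleavage rate.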

Experiment [2] concerns EfPiwi piRISC loaded with L1MC piRNA (26 nt). The experiment in a line: pre-steady-state target cleavage rate (min^-1); guide: L1MC piRNA 5'p-UAACUAAAUACUAUGCAAGCUGUAGG; MIWI and MILI are mouse PIWI proteins and EfPiwi is from a freshwater sponge; tags in brackets are library labels; higher = faster piRNA-guided slicing of the target. Conditions: auxiliary factor: 500 nM Ephydatia muelleri Gtsf1. Summed up: as §1
The mark [3] stands for this setting: auxiliary factor: none (no GTSF1).
Setting [4] is: auxiliary factor: 500 nM mouse GTSF1.

The source of these data is the supplement of paper PMC10338343.

± gives the standard deviation. The entries are a selection whose mix differs from that of the whole data set. Many of these values have a large error. The list shows a part of the results.

For the sequence UCCUCCUACAGCUUGCAUAGUAAUUAGAAA, the “pre-steady-state target cleavage rate” value in experiment [1] (setting [3]) was 0.00188 ± 0.0035; in experiment [2] it was 0.00474 ± 0.0026.
The matching figures for UCCUGGAUGUCGAACGAUACAAUUUAGUUA: 0.000266 ± 0.025 and 0.000262 ± 0.024.
For UCCUGGAUGUCGUUAGCAUAGUAUUUAGUUA, the “pre-steady-state target cleavage rate” value in experiment [1] (setting [3]) was found to be 0.00292 ± 0.0035; in experiment [2], 0.00456 ± 0.0035.
The matching figures for UCCUGGAUGUCCUUGCAUAGUAAUAAGUUA: 0.00086 ± 0.0074 and 0.00161 ± 0.005.
The matching figures for UCCUGGAUGUCGUUGCAUAGUAUUAUGUUA: 0.000634 ± 0.013 and 0.00025 ± 0.015.
The matching figures for UCCUGGAUGUCGAACGAUAUUAUUUAGUUA: 0.000253 ± 0.015 and 0.000154 ± 0.017.
As to UCCUGGAUGUCGUUGCAUAGUAUUUUAGUUA, the “pre-steady-state target cleavage rate” value was found to be 0.00102 ± 0.0078 in experiment [1] (setting [3]) and 0.000867 ± 0.015 in experiment [2].
The matching figures for UCCUCCUACAGCUUGCAUAGUAUUUUCUAA: 0.00316 ± 0.0036 and 0.00565 ± 0.0036.
The matching figures for UCCUGGAUGUCGAAGCAUAGUAUUUAAGUUA: 0.0011 ± 0.0064 and 0.000171 ± 0.024.
The matching figures for UCCUGGAUGUCGAUAGCAUAGUAUUUAGUUA: 0.00119 ± 0.0069 and 0.00284 ± 0.003.
Regarding UCCUCCUACAGGUUGCAAAGUAUUUAGUUA, the figures for the “pre-steady-state target cleavage rate” value in experiment [1] (setting [4]), in experiment [1] (setting [3]) and in experiment [2] were 1.29 ± 0.06, 0.0159 ± 0.0033 and 0.0547 ± 0.011, respectively.
The matching figures for UCCUCCUACAGCUUGCAUUGUAUUUAGUUA: 0.952 ± 0.034, 0.0245 ± 0.0055 and 0.0211 ± 0.0059.
In the case of UCCUGGAUGUCGAACGAUUCAAUUUAGUUA, the figures for the “pre-steady-state target cleavage rate” value in experiment [1] (setting [3]) and in experiment [2] were 0.00033 ± 0.012 and 0.000456 ± 0.014, respectively.
In the case of UCCUGGUACAGCUUGCUUAGUAUUUAGUUA, the “pre-steady-state target cleavage rate” value in experiment [1] (setting [4]) amounted to 0.79 ± 0.037; in experiment [1] (setting [3]), 0.0523 ± 0.011; in experiment [2] it was 0.0165 ± 0.0049.
As for UCCUGGAUGAGCUUGCAUAGUAUAAACAAA, the figures for the “pre-steady-state target cleavage rate” value in experiment [1] (setting [4]), in experiment [1] (setting [3]) and in experiment [2] were 0.00322 ± 0.0044, 0.000419 ± 0.0077 and 0.000721 ± 0.0048, respectively.
Turning to UCCUGGAUCAGCUUGCAUAGUAUAAACAAA, the “pre-steady-state target cleavage rate” value in experiment [1] (setting [3]) worked out at 0.00128 ± 0.004; in experiment [2] it was 0.000805 ± 0.0045.
As to UCCUCCUCAGCUUGCAUAGUAUUUAGUUA, the “pre-steady-state target cleavage rate” value in experiment [1] (setting [4]) worked out at 1.05 ± 0.027; in experiment [1] (setting [3]), 0.0482 ± 0.009; in experiment [2], 0.0735 ± 0.017.
Take UCCUGGAUGUCGAAGCAUUGUAUAUAGUUA: the “pre-steady-state target cleavage rate” value in experiment [1] (setting [3]) came to 0.000158 ± 0.033; in experiment [2], 0.000432 ± 0.011.
The matching figures for UCCUGGAUGUCCUUGGAUAGUAUUUUGUUA: 0.00174 ± 0.004 and 0.000553 ± 0.0076.
